Results published in publication PMC6377148.

By UniProt entry, the sequences of proteins in these tests, tags left out. Where a name states a change or a piece, a line headed by the entry shows the natural chain unless it says otherwise.
UniProt Q96DY7: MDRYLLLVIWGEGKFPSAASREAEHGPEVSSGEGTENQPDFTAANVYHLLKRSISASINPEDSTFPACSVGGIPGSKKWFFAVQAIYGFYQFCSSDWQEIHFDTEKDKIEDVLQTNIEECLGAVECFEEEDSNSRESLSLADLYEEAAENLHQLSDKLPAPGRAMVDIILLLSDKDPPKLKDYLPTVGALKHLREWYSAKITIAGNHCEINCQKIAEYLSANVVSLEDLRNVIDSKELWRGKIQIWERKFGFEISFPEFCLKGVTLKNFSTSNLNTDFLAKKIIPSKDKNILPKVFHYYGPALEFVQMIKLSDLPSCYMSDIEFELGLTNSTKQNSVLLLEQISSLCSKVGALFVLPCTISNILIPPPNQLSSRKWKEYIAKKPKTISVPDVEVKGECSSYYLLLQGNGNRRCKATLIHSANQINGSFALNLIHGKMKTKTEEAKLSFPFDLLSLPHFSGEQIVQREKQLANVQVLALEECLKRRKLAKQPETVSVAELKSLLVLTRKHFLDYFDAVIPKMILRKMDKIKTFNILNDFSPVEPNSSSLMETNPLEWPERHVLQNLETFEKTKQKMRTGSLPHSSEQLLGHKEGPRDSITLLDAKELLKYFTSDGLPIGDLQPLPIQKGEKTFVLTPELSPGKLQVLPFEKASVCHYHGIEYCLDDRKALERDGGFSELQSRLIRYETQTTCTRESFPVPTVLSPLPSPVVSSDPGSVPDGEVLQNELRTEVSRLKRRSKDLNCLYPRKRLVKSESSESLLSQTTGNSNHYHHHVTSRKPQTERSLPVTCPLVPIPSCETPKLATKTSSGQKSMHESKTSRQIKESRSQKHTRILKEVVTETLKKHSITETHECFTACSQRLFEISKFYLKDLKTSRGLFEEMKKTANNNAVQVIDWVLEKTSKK
UniProt P49336: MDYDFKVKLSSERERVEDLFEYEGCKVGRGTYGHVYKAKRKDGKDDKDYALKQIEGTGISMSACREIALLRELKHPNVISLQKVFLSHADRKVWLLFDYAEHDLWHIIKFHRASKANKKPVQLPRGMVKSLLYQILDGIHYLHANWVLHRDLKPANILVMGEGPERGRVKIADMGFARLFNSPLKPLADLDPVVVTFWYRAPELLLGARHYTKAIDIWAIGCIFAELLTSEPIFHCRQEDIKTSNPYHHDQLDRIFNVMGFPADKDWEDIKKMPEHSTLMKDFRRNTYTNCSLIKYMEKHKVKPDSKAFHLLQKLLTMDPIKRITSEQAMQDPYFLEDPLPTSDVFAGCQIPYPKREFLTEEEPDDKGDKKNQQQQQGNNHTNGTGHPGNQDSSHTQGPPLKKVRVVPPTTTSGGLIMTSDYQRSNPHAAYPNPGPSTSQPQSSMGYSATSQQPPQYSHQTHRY
UniProt Q7Z2Z1: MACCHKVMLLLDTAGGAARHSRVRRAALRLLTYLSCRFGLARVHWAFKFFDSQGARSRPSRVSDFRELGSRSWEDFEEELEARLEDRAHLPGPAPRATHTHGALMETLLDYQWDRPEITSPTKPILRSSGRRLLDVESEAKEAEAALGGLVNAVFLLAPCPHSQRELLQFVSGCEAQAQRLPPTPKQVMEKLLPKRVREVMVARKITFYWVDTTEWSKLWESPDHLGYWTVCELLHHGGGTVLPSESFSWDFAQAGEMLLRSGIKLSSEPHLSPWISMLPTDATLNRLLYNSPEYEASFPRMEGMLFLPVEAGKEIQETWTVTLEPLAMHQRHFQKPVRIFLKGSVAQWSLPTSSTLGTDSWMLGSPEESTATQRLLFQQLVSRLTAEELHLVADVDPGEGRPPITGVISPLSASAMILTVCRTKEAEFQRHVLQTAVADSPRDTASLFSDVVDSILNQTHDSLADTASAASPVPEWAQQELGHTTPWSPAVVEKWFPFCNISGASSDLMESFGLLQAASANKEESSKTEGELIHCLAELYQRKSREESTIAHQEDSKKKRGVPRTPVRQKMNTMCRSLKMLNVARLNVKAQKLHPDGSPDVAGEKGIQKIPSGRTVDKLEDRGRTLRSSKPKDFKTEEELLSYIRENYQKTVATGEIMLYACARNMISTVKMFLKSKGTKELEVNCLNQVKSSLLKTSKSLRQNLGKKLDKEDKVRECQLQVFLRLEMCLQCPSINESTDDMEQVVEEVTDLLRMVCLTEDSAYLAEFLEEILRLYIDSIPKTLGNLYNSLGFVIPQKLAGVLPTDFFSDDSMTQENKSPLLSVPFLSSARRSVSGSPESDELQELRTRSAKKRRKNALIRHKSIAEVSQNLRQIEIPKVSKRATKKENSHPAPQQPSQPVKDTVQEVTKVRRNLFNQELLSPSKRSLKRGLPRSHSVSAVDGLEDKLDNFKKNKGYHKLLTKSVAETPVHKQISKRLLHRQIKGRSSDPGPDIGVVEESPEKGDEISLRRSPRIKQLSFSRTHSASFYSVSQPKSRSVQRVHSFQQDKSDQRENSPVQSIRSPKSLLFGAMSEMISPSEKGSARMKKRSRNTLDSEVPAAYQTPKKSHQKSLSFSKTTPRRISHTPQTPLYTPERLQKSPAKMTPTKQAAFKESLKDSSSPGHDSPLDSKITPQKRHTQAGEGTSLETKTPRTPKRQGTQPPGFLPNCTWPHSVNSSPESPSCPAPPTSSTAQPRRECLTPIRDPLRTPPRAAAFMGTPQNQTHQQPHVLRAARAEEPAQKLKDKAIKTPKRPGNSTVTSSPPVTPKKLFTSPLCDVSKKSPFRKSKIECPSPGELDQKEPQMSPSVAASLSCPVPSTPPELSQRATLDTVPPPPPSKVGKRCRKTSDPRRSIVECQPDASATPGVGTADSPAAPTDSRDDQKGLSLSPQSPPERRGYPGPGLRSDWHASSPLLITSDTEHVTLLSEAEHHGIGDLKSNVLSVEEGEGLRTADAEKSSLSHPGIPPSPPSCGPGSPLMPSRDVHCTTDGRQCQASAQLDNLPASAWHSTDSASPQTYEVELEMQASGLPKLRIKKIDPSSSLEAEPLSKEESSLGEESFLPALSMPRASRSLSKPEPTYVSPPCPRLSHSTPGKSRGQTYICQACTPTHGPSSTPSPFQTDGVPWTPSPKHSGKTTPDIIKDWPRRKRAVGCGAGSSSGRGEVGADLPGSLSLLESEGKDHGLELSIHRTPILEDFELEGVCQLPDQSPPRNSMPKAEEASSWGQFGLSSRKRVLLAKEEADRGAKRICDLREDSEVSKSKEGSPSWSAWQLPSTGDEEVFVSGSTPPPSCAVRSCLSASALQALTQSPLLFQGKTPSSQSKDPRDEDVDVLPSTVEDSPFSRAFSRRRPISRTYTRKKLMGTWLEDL

Tests used:
[1] = biological target: MTBP S316 single point mutant, C-terminally 3×Flag-tagged (293T) (human) (UniProt Q96DY7); test: co-IP; 293T transiently transfected with C-terminally 3×Flag-tagged MTBP; anti-FLAG antibody on Protein G Dynabeads, lysis buffer 20 mM HEPES, 150 mM NaCl, 10% glycerol, 0.1% Triton X-100, 1 h at 4°C; endogenous Treslin/TICRR and Cdk8 by immunoblot
[2] = biological target: MTBP Q307 single point mutant, C-terminally 3×Flag-tagged (293T) (human) (UniProt Q96DY7); test: as above
[3] = biological target: MTBP V306 single point mutant, C-terminally 3×Flag-tagged (293T) (human) (UniProt Q96DY7); test: as above
[4] = biological target: MTBP L311 single point mutant, C-terminally 3×Flag-tagged (293T) (human) (UniProt Q96DY7); test: as above
[5] = biological target: MTBP S312 single point mutant, C-terminally 3×Flag-tagged (293T) (human) (UniProt Q96DY7); test: as above
[6] = biological target: MTBP K310 single point mutant, C-terminally 3×Flag-tagged (293T) (human) (UniProt Q96DY7); test: as above
[7] = biological target: MTBP M308 single point mutant, C-terminally 3×Flag-tagged (293T) (human) (UniProt Q96DY7); test: as above
[8] = biological target: MTBP P315 single point mutant, C-terminally 3×Flag-tagged (293T) (human) (UniProt Q96DY7); test: as above
[9] = biological target: MTBP–Cdk8 binding mutant (Cdk8bm), Flag3-tagged (HeLa Flip-In T-Rex stable line) (human) (UniProt Q96DY7); test: co-IP; Flag IP from native lysates of HeLa Flip-In T-Rex lines expressing MTBP-Flag3 (WT or mutants); endogenous Treslin/TICRR and Cdk8 by immunoblot; in S5 Fig lysates with or without lambda phosphatase, M2 anti-Flag magnetic beads

Measured: binding

Cdk8 (cyclin-dependent kinase 8), endogenous (from UniProt P49336 1-464) (enzyme)
not listed: [9]
binds: all other assays above

Treslin/TICRR (TopBP1-interacting replication stimulating protein/TopBP1-interacting checkpoint and replication regulator), endogenous (from UniProt Q7Z2Z1 1-1910)
binds: [9] | [2] | [5] | [6] | [7]

No constants are given. Whether binding was seen depends on the method and setting. Binding seen in cells or lysates may run through a third protein. Binding can be weak; no strength is given.
